Reference: article PMC11948500
These are yes or no findings as the source states them, for the method shown. Binding seen in cells or lysates may run through a third protein. Some entries that bind do so weakly or less than the wild type.

Sequences of proteins named here, by UniProt entry; tags and fusion partners are left off.
UniProt Q92993: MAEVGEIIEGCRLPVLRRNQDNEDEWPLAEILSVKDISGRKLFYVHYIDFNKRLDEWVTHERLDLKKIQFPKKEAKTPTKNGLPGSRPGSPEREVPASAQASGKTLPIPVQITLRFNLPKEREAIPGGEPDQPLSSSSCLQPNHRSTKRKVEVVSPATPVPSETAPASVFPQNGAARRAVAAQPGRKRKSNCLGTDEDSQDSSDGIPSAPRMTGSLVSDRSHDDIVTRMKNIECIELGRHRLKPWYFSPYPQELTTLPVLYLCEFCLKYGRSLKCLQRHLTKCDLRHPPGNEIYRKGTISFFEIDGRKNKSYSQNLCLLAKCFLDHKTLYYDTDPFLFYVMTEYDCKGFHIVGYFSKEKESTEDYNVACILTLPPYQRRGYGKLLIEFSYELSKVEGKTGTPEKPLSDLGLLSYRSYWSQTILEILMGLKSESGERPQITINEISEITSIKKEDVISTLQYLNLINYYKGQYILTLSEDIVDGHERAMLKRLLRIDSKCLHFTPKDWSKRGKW

Molecular target: T1, APBB1 (amyloid β precursor protein binding family B member 1) (human (endogenous in human SSC line)) (UniProt O00213)
T1 sequence: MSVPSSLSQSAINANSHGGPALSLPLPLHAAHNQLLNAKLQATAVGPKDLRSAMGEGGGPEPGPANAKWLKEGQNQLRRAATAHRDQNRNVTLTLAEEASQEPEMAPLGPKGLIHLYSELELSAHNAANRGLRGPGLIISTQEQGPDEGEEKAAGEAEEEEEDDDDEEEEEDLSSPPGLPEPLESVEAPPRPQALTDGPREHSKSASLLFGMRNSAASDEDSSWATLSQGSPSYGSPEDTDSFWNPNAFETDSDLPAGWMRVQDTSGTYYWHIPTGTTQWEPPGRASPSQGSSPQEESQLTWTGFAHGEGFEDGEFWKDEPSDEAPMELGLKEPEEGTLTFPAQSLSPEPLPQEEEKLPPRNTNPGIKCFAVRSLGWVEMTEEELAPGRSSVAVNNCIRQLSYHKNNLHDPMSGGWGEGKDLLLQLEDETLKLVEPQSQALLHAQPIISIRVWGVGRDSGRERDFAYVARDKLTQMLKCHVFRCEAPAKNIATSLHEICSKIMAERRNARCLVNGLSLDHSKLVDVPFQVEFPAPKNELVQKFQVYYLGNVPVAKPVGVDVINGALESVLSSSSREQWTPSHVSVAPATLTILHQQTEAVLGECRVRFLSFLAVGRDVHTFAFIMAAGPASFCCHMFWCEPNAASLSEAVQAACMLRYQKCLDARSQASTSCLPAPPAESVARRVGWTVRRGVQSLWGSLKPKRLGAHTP
Experiment: co-IP; human SSC line lysed in RIPA buffer; lysate incubated with primary antibody or control rabbit IgG overnight at 4 °C, protein G magnetic beads 2 h at 4 °C, Western blot; which protein was precipitated not given

binding: binds
Substance: KAT5 (from UniProt Q92993 1-513)
